Assay results from US20060104907A1, “Biologically potent analogues of the Dmt-Tic pharmacophore and methods of use” (Government of the U.S.A., represented by the Secretary, …, priority 2004, published 2006).
At least one structure is not confirmed: it was looked up by name or label, or the drawing left a doubt. Some of these results come from one statement about several compounds together.

Protein sequences, listed by entry. Tags and fused reporters are not part of them. Lines headed by an entry give the natural chain unless they say otherwise; changes in a name come on top.
UniProt P32300, whole entry: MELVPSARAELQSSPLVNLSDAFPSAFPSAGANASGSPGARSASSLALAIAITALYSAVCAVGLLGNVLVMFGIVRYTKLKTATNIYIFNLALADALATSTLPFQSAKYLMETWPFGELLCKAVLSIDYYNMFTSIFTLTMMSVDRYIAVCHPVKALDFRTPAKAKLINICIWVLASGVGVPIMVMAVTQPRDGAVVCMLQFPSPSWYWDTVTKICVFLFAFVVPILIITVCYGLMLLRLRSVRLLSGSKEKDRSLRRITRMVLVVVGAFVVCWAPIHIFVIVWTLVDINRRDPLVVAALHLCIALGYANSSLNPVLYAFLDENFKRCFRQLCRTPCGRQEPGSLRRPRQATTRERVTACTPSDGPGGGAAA
UniProt P33535, whole entry: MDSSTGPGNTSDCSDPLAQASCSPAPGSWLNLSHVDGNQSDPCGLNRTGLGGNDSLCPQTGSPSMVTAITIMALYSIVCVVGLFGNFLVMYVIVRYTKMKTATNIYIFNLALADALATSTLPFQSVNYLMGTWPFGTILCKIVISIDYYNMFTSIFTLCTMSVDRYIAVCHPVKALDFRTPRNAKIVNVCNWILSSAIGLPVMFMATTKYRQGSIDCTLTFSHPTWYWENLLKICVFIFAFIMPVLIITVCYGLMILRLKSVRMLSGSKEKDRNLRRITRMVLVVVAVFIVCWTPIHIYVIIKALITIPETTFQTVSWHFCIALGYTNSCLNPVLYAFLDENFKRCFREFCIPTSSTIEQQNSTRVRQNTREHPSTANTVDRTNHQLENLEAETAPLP

Experiments:
δ-opioid receptors = target: T1, δ-opioid receptors (Mus musculus, UniProt P32300); test: Functional bioactivity in mouse vas deferens (MVD), electrically-evoked twitch; format: cell-based
T1 construct: preparations of mouse vas deferens (MVD, containing δ-opioid receptors); from tissue; host or cells: mouse vas deferens
Procedure: (§1) Preparations of myenteric plexus-longitudinal muscle obtained from male guinea-pig ileum (GPI, enriched in μ-opioid receptors) and preparations of mouse vas deferens (MVD, containing δ-opioid receptors) were used for field stimulation with bipolar rectangular pulses of supramaximal voltage (Melchiorri et al., Eur. J. Pharm., 195: 201-207 (1991)). Agonists were evaluated for their ability to inhibit the electrically-evoked twitch. The biological potency of the compounds was compared with that of the μ-opioid receptor agonist dermorphin in GPI and with that of the δ-opioid receptor agonist deltorphin C in MVD. The results are expressed as the IC50 values obtained from dose-response curves (Prism™, GraphPad). To evaluate antagonistic properties, compounds 2 and 3 were added to the bath and allowed to interact with tissue receptor sites 5 min before adding deltorphin C. The IC50 values (nM) represent the mean of not less than six fresh tissue samples±SE. […] IC50 and pA2 values (nM) are mean ±SE of at least six experiments conducted with fresh tissues.

μ-opioid receptors [1] = target: T2, μ-opioid receptors (Rattus norvegicus, UniProt P33535); test: Competitive receptor binding assay, rat brain synaptosomes (P2 fraction), [3H]DAMGO; details: compared to the reference tripeptide (1)
T2 construct: using rat brain synaptosomes (P2 fraction); from tissue; host or cells: rat brain synaptosomes (P2 fraction)

μ-opioid receptors [2] = test: Functional bioactivity in guinea-pig ileum (GPI), electrically-evoked twitch; format: cell-based; details: agonist activity, inhibition of electrically-evoked twitch
Procedure: as §1

[3] = Fluorescence emission spectra and quantum yield; format: physicochemical
Procedure: Fluorescence emission spectra were recorded on a Jobin Yvon-Spex FluoroMax-2 spectrofluorometer with 1 nm spectral resolution for excitation and emission. A peptide solution at a concentration of 2×10^−5M in Tris-HCl buffer, pH 6.6, was used. The excitation wavelength was 350 nm. Fluorescence quantum yield (φ) was determined relative to quinine sulfate (Fluka) in 1 N H2SO4 (φ=0.546) as a reference (Meech et al., Journal of Photochemistry, 23: 193 (1983)). The quantum yield was calculated according to the following equation: [formula] where the subscripts S and R refer to the sample ns and reference compound, respectively; E is the integrated area under the corrected emission spectrum; A is the absorbance of the solution at the excitation wavelength. Absorbance values were kept below 0.02 to minimise inner filter and self-quenching effects. Since both the sample and the reference were in aqueous solution, the correction for the refractive index (nS/nR)^2 was considered to be of no significant relevance.

Structure (SMILES): Cc1cc(O)cc(C)c1C[C@H](N)C(=O)N1Cc2ccccc2C[C@H]1C(=O)N[C@@H](CCC(=O)O)C(=O)NCCCCCNC(=S)Nc1ccc(-c2c3ccc(=O)cc-3oc3cc(O)ccc23)c(C(=O)O)c1 [Compound 3, 5-(3-{5-[2-({2-[2-amino-3-(4-hydroxy-2,6-dimethyl-phenyl)-propionyl]-1,2,3,4-tetrahydro-isoquinoline-3-carbonyl}-amino)-4-carboxy-butyrylamino]-pentyl}-thioureido)-2-(6-hydroxy-3-oxo-3H-xanten-9-yl)-benzoic acid]
- MVD activity type (δ-opioid receptors; against [D-Ala2]deltorphin I dose-response curves): non-equilibrium antagonist activity
- MVD pA2 (δ-opioid receptors; antagonism of deltorphin C, Schild plot): Irreversible antagonist
- Hill slope of [D-Ala2]deltorphin I log dose-response curve (δ-opioid receptors; in the presence of 1 nM 3): 1.1
- Hill slope of [D-Ala2]deltorphin I log dose-response curve (δ-opioid receptors; in the presence of 5 nM 3): 0.5
- reversibility of antagonism on washing (δ-opioid receptors; washing the tissue with a drug-free solution for a time exceeding three hours): could not be reversed
- fold increase of μ-opioid receptor affinity (μ-opioid receptors [1]): ca. 9 fold
- IC50 (μ-opioid receptors [2]): > 1000 nM
- fluorescence emission maximum ([3]; Tris/HCl buffer pH 6.6, excitation 350 nm): 515 nm
- fluorescence quantum yield (φ) ([3]; relative to quinine sulfate in 1 N H2SO4, Tris-HCl buffer pH 6.6): 0.227
